Reference: PMC12681942
These are yes or no findings as the source states them, for the method shown. In cells and extracts the contact can be indirect. Some results given as binding are weak or reduced against the parent protein; the word gives no strength.

Protein sequences, listed by entry. Tags and fused reporters are not part of them. Residues count along the entry.
UniProt P35222: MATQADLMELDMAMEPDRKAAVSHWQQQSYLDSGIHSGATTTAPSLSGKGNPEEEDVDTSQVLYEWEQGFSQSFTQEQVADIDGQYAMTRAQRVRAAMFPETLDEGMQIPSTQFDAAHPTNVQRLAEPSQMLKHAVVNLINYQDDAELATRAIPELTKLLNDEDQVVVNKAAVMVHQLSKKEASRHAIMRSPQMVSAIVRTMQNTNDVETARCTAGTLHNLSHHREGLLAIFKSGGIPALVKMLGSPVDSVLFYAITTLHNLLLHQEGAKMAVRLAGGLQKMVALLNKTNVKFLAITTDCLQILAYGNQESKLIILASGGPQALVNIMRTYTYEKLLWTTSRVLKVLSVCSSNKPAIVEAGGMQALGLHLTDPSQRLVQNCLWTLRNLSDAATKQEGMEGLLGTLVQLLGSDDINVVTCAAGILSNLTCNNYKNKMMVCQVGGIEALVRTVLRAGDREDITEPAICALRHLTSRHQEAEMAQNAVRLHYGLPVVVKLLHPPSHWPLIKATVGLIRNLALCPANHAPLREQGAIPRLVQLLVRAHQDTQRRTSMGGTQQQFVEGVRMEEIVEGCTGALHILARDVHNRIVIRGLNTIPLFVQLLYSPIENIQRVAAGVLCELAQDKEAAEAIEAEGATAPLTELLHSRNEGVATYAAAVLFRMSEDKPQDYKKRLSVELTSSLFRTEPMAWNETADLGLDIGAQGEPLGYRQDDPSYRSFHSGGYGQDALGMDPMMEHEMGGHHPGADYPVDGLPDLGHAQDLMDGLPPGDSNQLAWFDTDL
UniProt Q14517, residues 22-4588: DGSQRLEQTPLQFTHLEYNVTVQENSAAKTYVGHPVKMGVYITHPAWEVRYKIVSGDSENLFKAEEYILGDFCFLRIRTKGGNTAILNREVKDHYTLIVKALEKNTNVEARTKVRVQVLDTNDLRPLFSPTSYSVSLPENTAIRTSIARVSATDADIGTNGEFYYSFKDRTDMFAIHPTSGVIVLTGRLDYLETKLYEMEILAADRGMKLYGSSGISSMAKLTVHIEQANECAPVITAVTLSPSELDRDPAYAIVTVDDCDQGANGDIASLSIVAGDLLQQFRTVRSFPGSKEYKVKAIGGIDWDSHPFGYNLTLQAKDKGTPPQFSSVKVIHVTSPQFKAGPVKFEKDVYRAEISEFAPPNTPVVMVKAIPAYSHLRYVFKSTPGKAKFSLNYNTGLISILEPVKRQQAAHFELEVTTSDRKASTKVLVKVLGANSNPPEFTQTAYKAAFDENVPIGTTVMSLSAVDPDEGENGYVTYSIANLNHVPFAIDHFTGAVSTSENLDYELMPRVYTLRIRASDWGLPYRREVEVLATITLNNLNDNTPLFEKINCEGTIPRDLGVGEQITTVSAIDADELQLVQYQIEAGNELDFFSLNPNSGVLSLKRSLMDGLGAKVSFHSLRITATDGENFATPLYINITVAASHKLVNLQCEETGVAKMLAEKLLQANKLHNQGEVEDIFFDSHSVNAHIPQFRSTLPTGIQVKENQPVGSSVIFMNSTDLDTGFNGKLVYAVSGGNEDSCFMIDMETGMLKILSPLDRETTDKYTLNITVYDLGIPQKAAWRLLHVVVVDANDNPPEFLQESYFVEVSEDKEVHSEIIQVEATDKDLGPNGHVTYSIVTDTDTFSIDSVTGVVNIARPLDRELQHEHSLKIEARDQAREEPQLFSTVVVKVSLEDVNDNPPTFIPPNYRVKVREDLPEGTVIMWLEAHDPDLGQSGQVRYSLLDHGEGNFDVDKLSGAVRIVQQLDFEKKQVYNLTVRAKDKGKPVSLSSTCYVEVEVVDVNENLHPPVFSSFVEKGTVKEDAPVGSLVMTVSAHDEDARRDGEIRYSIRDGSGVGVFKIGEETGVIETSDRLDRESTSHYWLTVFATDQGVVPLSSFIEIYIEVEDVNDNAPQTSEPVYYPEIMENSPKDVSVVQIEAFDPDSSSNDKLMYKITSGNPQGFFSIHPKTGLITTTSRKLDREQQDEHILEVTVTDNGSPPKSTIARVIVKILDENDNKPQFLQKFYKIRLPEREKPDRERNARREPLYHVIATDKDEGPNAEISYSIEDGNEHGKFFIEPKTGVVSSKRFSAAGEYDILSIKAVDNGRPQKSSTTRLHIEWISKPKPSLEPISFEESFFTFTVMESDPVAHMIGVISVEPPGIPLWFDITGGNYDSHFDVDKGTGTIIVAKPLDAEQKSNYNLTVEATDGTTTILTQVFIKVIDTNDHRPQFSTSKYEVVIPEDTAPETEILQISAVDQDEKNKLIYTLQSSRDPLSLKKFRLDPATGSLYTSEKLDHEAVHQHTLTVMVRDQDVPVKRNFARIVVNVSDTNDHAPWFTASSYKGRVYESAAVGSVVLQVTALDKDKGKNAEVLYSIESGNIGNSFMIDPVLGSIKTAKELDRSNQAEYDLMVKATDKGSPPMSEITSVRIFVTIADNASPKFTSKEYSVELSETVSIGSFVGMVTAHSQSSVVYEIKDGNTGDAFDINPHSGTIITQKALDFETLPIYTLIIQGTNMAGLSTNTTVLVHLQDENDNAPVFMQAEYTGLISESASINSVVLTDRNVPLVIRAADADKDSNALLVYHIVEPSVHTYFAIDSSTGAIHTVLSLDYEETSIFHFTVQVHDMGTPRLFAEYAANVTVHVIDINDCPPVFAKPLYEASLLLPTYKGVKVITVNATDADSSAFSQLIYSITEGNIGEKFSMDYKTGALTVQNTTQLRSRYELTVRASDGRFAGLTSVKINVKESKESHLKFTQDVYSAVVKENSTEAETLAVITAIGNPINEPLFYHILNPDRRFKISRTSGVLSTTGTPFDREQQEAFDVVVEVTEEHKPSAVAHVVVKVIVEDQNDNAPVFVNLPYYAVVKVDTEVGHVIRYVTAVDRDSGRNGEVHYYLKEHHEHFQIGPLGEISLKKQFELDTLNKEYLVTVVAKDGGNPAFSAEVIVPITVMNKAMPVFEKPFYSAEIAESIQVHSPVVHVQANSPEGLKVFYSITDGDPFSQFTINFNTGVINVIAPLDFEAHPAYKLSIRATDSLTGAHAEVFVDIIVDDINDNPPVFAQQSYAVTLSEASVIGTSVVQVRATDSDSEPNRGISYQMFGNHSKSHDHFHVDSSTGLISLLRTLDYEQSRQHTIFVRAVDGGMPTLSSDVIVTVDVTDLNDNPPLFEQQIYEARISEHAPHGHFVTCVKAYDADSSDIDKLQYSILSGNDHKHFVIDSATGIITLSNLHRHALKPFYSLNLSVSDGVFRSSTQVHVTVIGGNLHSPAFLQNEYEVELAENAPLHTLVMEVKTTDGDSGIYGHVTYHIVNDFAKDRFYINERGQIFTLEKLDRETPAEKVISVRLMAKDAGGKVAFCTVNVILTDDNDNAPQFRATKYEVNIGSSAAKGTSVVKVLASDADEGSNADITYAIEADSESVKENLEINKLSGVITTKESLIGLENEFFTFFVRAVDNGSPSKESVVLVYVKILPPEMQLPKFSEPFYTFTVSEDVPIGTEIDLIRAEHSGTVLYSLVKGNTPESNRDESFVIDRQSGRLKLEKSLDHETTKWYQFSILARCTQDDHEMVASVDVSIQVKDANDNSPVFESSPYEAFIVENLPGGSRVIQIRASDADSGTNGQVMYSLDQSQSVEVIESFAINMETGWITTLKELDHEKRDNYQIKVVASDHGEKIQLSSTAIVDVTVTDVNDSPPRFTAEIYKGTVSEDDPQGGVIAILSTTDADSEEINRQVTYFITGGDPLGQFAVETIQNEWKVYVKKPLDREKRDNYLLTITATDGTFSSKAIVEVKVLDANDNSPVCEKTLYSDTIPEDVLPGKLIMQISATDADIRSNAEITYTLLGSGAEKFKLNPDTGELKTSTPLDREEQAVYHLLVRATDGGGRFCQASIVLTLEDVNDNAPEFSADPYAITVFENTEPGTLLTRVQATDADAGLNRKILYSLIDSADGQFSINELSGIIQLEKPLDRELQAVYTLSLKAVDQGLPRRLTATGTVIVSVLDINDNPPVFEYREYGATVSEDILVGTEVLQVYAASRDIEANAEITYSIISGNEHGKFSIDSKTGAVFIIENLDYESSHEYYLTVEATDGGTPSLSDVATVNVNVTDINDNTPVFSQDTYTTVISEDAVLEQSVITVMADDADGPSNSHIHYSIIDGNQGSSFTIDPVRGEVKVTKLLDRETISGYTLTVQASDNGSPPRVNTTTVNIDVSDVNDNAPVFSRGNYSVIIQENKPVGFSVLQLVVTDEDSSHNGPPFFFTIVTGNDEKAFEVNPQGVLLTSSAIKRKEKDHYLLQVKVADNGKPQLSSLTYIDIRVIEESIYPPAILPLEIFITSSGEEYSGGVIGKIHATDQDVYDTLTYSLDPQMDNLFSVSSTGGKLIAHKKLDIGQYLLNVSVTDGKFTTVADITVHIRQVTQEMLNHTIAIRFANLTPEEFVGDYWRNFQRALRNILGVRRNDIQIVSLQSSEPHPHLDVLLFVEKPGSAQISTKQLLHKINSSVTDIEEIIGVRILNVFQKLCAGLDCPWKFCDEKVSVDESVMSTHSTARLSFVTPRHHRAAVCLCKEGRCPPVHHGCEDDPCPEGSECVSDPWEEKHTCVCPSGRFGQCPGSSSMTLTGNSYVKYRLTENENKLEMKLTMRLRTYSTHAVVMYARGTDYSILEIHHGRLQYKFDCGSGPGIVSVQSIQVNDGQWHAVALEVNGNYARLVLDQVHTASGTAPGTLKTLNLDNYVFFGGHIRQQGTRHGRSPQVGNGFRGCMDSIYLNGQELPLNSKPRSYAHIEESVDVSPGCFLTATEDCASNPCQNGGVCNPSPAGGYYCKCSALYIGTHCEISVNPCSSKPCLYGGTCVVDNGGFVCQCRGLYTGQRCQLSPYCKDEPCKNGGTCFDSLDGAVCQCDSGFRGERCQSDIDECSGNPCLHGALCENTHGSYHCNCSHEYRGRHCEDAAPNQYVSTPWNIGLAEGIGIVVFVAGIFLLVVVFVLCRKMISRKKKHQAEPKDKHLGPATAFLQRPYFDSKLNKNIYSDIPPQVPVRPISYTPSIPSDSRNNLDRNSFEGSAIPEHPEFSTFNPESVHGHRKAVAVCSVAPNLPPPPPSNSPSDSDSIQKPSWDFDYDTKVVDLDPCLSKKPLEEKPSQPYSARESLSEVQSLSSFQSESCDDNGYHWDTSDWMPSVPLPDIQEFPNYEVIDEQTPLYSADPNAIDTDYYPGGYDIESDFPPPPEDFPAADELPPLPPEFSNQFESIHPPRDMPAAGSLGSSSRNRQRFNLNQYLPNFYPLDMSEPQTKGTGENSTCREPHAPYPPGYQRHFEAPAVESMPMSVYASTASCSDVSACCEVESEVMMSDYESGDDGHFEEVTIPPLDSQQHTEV

Molecular target: β-catenin (CTNNB1) (human (endogenous in MCF-7)) (UniProt P35222)
Experiment: co-IP; MCF-7 cell lysate (cell lysis buffer for Western and IP); CTNNB1 antibody on Protein A/G magnetic beads, incubated with lysate overnight at 4 °C; Western blotting; IgG as negative control

**Q.** Which binding does the source give for “FAT Atypical Cadherin 1 (FAT1) (from UniProt Q14517 22-4588)” here?
**A.** binds
